Entries after “also recorded” stand apart in the source; their conditions may differ. At least one structure is not confirmed: it was looked up by name or label, or the drawing left a doubt.
Tests used:
Jurkat cells = assay: Flow-cytometric (FACS) analysis of selective binding to apoptotic Jurkat cells (anti-Fas antibody); type: cell-based, Human; conditions: compound 50 μM for 30 min, excitation 356 nm
[1] = test system: small intestine epithelial cells; assay: Detection of chemotherapy-induced apoptosis of small intestine epithelial cells in vivo, fluorescent microscopy; design: species or system Balb/c mice; conditions: sacrifice 2 h later

CN(C)c1cccc2c(S(=O)(=O)NC(CCN(CCCO)CCC(NS(=O)(=O)c3cccc4c(N(C)C)cccc34)C(=O)O)C(=O)O)cccc12 (stereo not shown) [NST912]
binding/uptake by apoptotic Jurkat cells (fluorescence at 530 nm) (Jurkat cells; apoptosis by 0.1 μg/ml anti-Fas antibody): selective binding and accumulation; also recorded: selective uptake | fluorescence of control, non-treated Jurkat cells upon addition of compound (Jurkat cells; non-treated cells, emission 530 nm): low levels of fluorescence values | uptake by apoptotic cells in small intestinal crypts ([1]; Taxol 27 mg/kg + cyclophosphamide 300 mg/kg, compound i.v. 2 mg per animal after 24 h): selective uptake and accumulation; also recorded: Strong, selective uptake | uptake in non-apoptotic crypt cells or in animals not treated with chemotherapy ([1]; compound i.v. 2 mg per animal): No such staining; also recorded: no significant uptake
